Experimental data published in PubChem BioAssay (Tox21).
Values joined by “and” are separate entries in the source; they are usually repeats but may differ in a detail not shown here. Equal values may be shown once. The shares of active, inactive and inconclusive entries below differ from those in the screen. For some assays here: Where the call is inconclusive, the potency comes from a doubtful curve fit. Some structures have more than one record in an assay (separate samples or runs), and their calls can disagree. Active and inactive are the calls of the source. Unless noted, the call rests on the fitted dose curve.

Sequences of proteins named here, by UniProt entry; tags and fusion partners are left off. A change or cut given only in a name is not applied to a line headed by its entry.
UniProt P14416, whole entry, looked up: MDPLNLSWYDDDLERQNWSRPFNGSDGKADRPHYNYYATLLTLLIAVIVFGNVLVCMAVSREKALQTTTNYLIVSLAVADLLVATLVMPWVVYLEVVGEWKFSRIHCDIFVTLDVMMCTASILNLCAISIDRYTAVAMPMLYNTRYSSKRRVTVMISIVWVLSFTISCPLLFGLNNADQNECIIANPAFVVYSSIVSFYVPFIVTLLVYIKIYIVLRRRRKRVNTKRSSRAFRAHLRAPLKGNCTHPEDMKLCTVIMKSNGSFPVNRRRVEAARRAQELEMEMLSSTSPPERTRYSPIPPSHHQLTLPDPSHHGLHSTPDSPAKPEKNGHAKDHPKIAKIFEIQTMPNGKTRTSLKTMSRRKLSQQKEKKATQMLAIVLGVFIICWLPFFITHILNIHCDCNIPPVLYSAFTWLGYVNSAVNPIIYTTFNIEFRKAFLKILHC
UniProt P28223, whole entry, looked up: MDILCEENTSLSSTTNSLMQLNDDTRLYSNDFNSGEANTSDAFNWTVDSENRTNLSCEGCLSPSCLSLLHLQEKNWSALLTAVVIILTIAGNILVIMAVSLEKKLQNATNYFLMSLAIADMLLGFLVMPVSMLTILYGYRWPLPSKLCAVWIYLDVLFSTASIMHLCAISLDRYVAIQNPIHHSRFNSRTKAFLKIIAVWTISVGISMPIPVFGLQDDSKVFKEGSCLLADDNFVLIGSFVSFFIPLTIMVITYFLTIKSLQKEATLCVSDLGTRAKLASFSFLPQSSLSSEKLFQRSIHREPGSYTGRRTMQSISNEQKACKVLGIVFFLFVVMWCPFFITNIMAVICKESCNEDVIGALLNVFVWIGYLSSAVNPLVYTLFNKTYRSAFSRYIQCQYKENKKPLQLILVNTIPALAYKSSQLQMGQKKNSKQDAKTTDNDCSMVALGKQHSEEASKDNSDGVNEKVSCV
UniProt P11229: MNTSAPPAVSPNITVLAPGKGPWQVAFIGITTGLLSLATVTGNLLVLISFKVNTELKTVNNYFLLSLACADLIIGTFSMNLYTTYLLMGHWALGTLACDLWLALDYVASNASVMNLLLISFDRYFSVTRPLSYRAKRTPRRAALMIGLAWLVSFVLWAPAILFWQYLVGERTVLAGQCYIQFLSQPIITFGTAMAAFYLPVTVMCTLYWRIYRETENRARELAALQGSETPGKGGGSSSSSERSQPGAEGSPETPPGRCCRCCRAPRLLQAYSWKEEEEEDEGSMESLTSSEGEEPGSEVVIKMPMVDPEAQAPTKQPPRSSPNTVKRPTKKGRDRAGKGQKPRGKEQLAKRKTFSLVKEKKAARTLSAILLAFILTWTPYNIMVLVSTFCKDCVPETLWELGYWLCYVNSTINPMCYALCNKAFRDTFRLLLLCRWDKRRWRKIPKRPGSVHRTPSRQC

What was measured:
[1] = p53 small molecule agonists, cell-based qHTS assay: qHTS cell viability counter screen (AID 1963581); further: nearly all actives have a fitted effect of over 45% in size; further: potency means the concentration at half of the fitted maximal effect
How it was run: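 In the same plates used for the p53 bla reporter, HCT-116 cells given compounds for 16 h at 37 C received CellTiter-Glo; luminescence was recorded 30 min later at room temperature.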

[2] = p53 small molecule agonists, cell-based qHTS assay (AID 1963582; active means well fitted activation curve with a large enough effect in the signal ratio in the repeat runs, not every such curve was filed as active; inconclusive means weak or mixed curves; the % refers to the signal ratio; further: potency means the concentration at half of the fitted maximal effect); conditions: HCT-116 p53RE-bla reporter, beta-lactamase FRET ratio, 16 h; activation: at 66 µM (top of the series) unless noted
How it was run: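 Compounds are pin-transferred in DMSO onto p53RE-bla cells and incubated 16 h at 37 C. The B/G FRET beta-lactamase substrate is then applied for 2 h at RT and fluorescence recorded.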

[3] = molecular target: Beta-2 adrenergic receptor (Homo sapiens) (UniProt P07550); assay: Adrenergic beta2 receptor (ADRB2) small molecule agonists, cell-based qHTS assay (AID 1963593); conditions: CHO-ADRB2 cells, cAMP HTRF, 30 min; further: potency means the concentration at half of the fitted maximal effect;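 on activation: CHO cells stably overexpressing human ADRB2; on the % scale 0 is the no-effect control and ±100 the full control effect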
How it was run: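 CHO cells stably over-expressing ADRB2 were plated overnight at 37C, then dosed with compounds plus a stimulation mix containing 100uM IBMX and 25uM Ro-20-1724 for 0.5hr at room temperature. cAMP was measured by HTRF competition, 1hr.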

[4] = cAMP Responsive Elements (CRE) small molecule agonists, cell-based qHTS assay (AID 1963590); conditions: CRE-bla HEK293T, beta-lactamase FRET ratio, 3 h; activation: at 92.4 µM (top of the series) unless noted; further: potency means the concentration at half of the fitted maximal effect; on activation: on the % scale 0 is the no-effect control and ±100 the full control effect
How it was run: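 Cell line: CRE-bla HEK 293T; medium DMEM/10% dialyzed FBS/0.1 mM NEAA/1 mM pyruvate/25 mM HEPES; 3 h compound exposure; beta-lactamase FRET readout after 2 h substrate loading at RT.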

[5] = cAMP Responsive Elements (CRE) small molecule antagonists, cell-based qHTS assay (AID 1963591; active means well fitted inhibition curve with a large enough effect in the signal ratio in the repeat runs, not every such curve was filed as active; inconclusive means weak or mixed curves, or effect the other way; the % refers to the signal ratio; further: potency means the concentration at half of the fitted maximal effect; on activity change, negative = inhibition: on the % scale 0 is the no-effect control and ±100 the full control effect); conditions: CRE-bla HEK293T, beta-lactamase FRET ratio; activity change, negative = inhibition: at 92.4 µM (top of the series) unless noted
How it was run: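 Inhibition of NKH477-driven (0.25 uM final) CRE-beta-lactamase signal in HEK293T cells, 3 h compound exposure at 37 °C, detected by FRET substrate fluorescence.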

[6] = molecular target: D(2) dopamine receptor (Homo sapiens) (UniProt P14416); assay: Dopamine D2 receptor (DRD2) small molecule antagonists, cell-based qHTS assay (AID 1963595; active means well fitted inhibition curve with a large enough effect in the signal ratio in the repeat runs, with a control signal flat; inconclusive means weak or mixed curves, or effect the other way; the % refers to the signal ratio; further: on the % scale 0 is the no-effect control and ±100 the full control effect); conditions: HEK293-DRD2 cAMP HTRF antagonist mode; activity change, negative = inhibition: at 92.4 µM (top of the series) unless noted
How it was run: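 Antagonism was scored as restored cAMP in HEK293-DRD2 cells. These cells were stimulated with 200 nM NKH477 and 12 nM quinpirole for 30 min at room temperature, in the presence of 0.1 mM Ro20-1724.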

[7] = molecular target: 5-hydroxytryptamine receptor 2A (Homo sapiens) (UniProt P28223); assay: 5-hydroxytryptamine receptor 2A (HTR2A) small molecule antagonists, cell-based qHTS assay (AID 1963586); further: nearly all actives have a fitted effect of over 45% in size; further: potency means the concentration at half of the fitted maximal effect
How it was run: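 Antagonist-mode intracellular calcium assay: DOI (4 nM) added after 5 min compound pre-incubation at room temperature to dye-loaded HTR2A-CHO cells. Fluorescence followed for 3 min, sampled every second.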

[8] = molecular target: Muscarinic acetylcholine receptor M1 (Homo sapiens) (UniProt P11229); assay: Cholinergic receptor muscarinic 1 (CHRM1) small molecule antagonists, cell-based qHTS assay (AID 1963588); further: nearly all actives have a fitted effect of over 40% in size; further: potency means the concentration at half of the fitted maximal effect
How it was run: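 CHRM1-CHO calcium-flux assay, antagonist mode. Cells were seeded 18 h, dye-loaded 1 h at 37 C and given compound for 5 min at RT, then acetylcholine was added at 50nM. FDSS fluorescence was read 3 min; 15 concentrations, three runs.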

[9] = molecular target: Beta-2 adrenergic receptor (Homo sapiens) (UniProt P07550); assay: Adrenergic beta2 receptor (ADRB2) small molecule antagonists, cell-based qHTS assay (AID 1963592); conditions: CHO-ADRB2 cells, isoproterenol-stimulated cAMP HTRF ratio, 0.5 h; activity change, negative = inhibition: at 92.4 µM (top of the series) unless noted; further: nearly all actives have a fitted effect of over 50% in size; further: potency means the concentration at half of the fitted maximal effect
How it was run: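 Cells (CHO, stable ADRB2 overexpression) incubated 18-20hr at 37C; compounds added from DMSO; agonist mix (1nM isoproterenol, 100uM IBMX, 25uM Ro-20-1724) added; 0.5hr RT; d2-cAMP and anti-cAMP-cryptate added; 1hr RT; 665/615 nm read.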

[10] = molecular target: D(2) dopamine receptor (Homo sapiens) (UniProt P14416); assay: Dopamine D2 receptor (DRD2) small molecule agonists, cell-based qHTS assay (AID 1963594); conditions: HEK293-DRD2 cAMP HTRF, agonist mode, 30 min; activation: at 92.4 µM (top of the series) unless noted; further: potency means the concentration at half of the fitted maximal effect; nearly all actives have a fitted effect of over 35% in size
How it was run: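 HEK293 cells stably expressing DRD2 were cultured 24 h at 37 C, then given Ro20-1724 (0.1 mM final) and compounds for 10 min at room temperature. NKH477 (200nM) was then added for 30 min. cAMP was read by HTRF.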

[11] = molecular target: Muscarinic acetylcholine receptor M1 (Homo sapiens) (UniProt P11229); assay: Cholinergic receptor muscarinic 1 (CHRM1) small molecule agonists, cell-based qHTS assay (AID 1963589); conditions: CHRM1-CHO cells, agonist mode, calcium flux fluorescence; activation: at 76.8 µM (top of the series); further: potency means the concentration at half of the fitted maximal effect; nearly all actives have a fitted effect of over 35% in size
How it was run: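 Each compound was tested at 15 concentrations across three independent runs on dye-loaded CHO cells stably expressing human CHRM1, reading intracellular calcium fluorescence kinetically at 1 sec intervals.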

[12] = molecular target: 5-hydroxytryptamine receptor 2A (Homo sapiens) (UniProt P28223); assay: 5-hydroxytryptamine receptor 2A (HTR2A) small molecule agonists, cell-based qHTS assay (AID 1963587); conditions: HTR2A-CHO cells, calcium flux fluorescence, agonist mode; activation: at 76.8 µM (top of the series); further: potency means the concentration at half of the fitted maximal effect; nearly all actives have a fitted effect of over 30% in size
How it was run: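 HTR2A-CHO cells, plated 18 h at 37 C/5% CO2, dye-loaded 1 h at 37 C; compounds in DMSO added by pin tool (agonist mode). Intracellular calcium flux read as kinetic fluorescence on FDSS over 2 min at 1 s intervals.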

[13] = activation: at 92.4 µM (top of the series) unless noted

Which Potency [1] does the source give for `SCc1ccco1` here?
Its Potency is inconclusive: 51.3 µM [rising, single point].

What about the Potency [2] of the same compound?
The Potency was inconclusive: 45.8 µM [activator].

And the Potency [3, 13]?
Its Potency is “inactive”.

With `O=[N+]([O-])c1c(Cl)c(Cl)c(Cl)c(Cl)c1Cl` as the compound, how does the Potency [1] read?
Its Potency is inconclusive: 40.8 µM [rising, partial curve].

And the Potency [2]?
Its Potency is inconclusive: 36.2 µM [rising, partial curve].

What about the Potency [4] of the same compound?
Its Potency is inconclusive: 54.2 µM [rising, partial curve] and inconclusive: 61.1 µM [rising, partial curve].

What about the Potency [5] of the same compound?
The Potency was inconclusive: 24.3 µM [fluorescent].

What about the activation [3, 13] of the same compound?
The activation was inconclusive: -34.5% and inconclusive: -14.2%.

What about the Potency [6] of the same compound?
The Potency was “inactive”.

With `O=C(O)[C@H](O)[C@@H](O)C(=O)O` as the compound, how does the Potency [1] read?
Its Potency is “inactive”.

And the Potency [7]?
The Potency was “inactive”.

And the Potency [3, 13]?
The Potency was “inactive”.

For `Cc1cccc(N)c1`, which Potency [1] is on record?
The Potency was inconclusive: 4.58 µM [cytotoxic, single point].

And the Potency [8]?
Its Potency is inconclusive: 4.22 µM [inhibitor, single point].

What about the Potency [4] of the same compound?
Its Potency is “inactive”.

For `CC(C)(C)OOC(=O)c1ccccc1`, which Potency [1] is on record?
Its Potency is “inactive”.

What about the Potency [8] of the same compound?
Its Potency is active: 13.3 µM.

What about the Potency [5] of the same compound?
The Potency was “inactive”.

And the Potency [3, 13]?
The Potency was “inactive”.

Which Potency [1] does the source give for `Oc1c(Br)cc(Br)cc1Br` here?
Its Potency is inconclusive: 10.2 µM [cytotoxic, full curve].

And the Potency [7]?
Its Potency is inconclusive: 47.3 µM [inhibitor, single point].

And the Potency [5]?
The Potency was “inactive”.

And the Potency [3, 13]?
The Potency was inconclusive: 21.7 µM [inhibitor, partial curve, poor fit].

And the activation ([3]; at 42.5 µM (top of the series))?
The activation was inconclusive: 1.64%.

And the activation ([3]; at 92.4 µM (top of the series))?
The activation was inconclusive: -18.5%.

Which results are given for `CCCSP(=O)(OCC)SCCC`?
Potency [1]: inconclusive: 18.9 µM [cytotoxic, single point]; Potency [7]: inactive; Potency [4]: inconclusive: 28.3 µM [rising, partial curve, poor fit]; Potency [5]: inconclusive: 1.18 µM [inhibitor, single point]; Potency [3, 13]: inconclusive: 28.3 µM [inhibitor]

For `Oc1ccc(Cc2ccc(O)cc2)cc1`, which Potency [1] is on record?
Its Potency is inconclusive: 5.17 µM [rising, partial curve].

And the Potency [7]?
The Potency was inconclusive: 23.8 µM [inhibitor, partial curve, poor fit].

What about the Potency [5] of the same compound?
Its Potency is “inactive”.

What about the activation [3, 13] of the same compound?
The activation was inconclusive: 13.8%.

With `O=C(Cl)C(Cl)(Cl)Cl` as the compound, how does the Potency [1] read?
The Potency was “inactive”.

What about the Potency [4] of the same compound?
Its Potency is “inactive”.

And the activity change, negative = inhibition [9]?
Its activity change, negative = inhibition is inconclusive: -1.6%.

And the activation [3, 13]?
Its activation is inconclusive: 21.5%.

With `Oc1ccc(I)cc1` as the compound, how does the Potency [1] read?
The Potency was inconclusive: 3.24 µM [rising, partial curve, poor fit].

What about the Potency [4] of the same compound?
Its Potency is “inactive”.

What about the activation [3, 13] of the same compound?
Its activation is inconclusive: 4.25%.

What does the source list for `CCCCn1cc[n+](C)c1`?
Potency [1]: inconclusive: 18.2 µM [cytotoxic, single point]; Potency [4]: inactive; Potency [9]: inconclusive: 27.7 µM [inhibitor]; Potency [3, 13]: inconclusive: 611 nM [inhibitor, single point] and inconclusive: 1.44 µM [inhibitor, single point] and inconclusive: 31.1 µM [inhibitor, partial curve]; activation [3, 13]: inconclusive: 17.8% and inconclusive: 31.6% and inconclusive: 6.63%; activation ([3]; at 92.4 µM (top of the series)): inactive: 20.5% and inactive: 10.2% and inactive: 0.415%; Potency [10]: inconclusive: 32.3 µM [falling, full curve, poor fit]

With `CC(Cc1ccccc1)NCCCCl` (stereo not given) as the compound, how does the Potency [1] read?
The Potency was inconclusive: 2.23 µM [rising, single point].

What about the Potency [7] of the same compound?
The Potency was inconclusive: 14.5 µM [inhibitor, single point].

And the Potency [4]?
The Potency was “inactive”.

Which results are given for `O=S(=O)(NS(=O)(=O)C(F)(F)F)C(F)(F)F`?
Potency [1]: inactive; Potency [11]: inconclusive: 24.5 µM [rising, partial curve, poor fit]; Potency [4]: inconclusive: 60.9 µM [rising, partial curve]; activity change, negative = inhibition [5]: inconclusive: -40.1%; Potency [3, 13]: inactive

For `O=P1(N(CCCl)CCCl)NCCCO1` (stereo not given), which Potency [1] is on record?
The Potency was “inactive”.

And the Potency [4]?
The Potency was “inactive”.

And the activity change, negative = inhibition [9]?
Its activity change, negative = inhibition is inconclusive: -21.1%.

And the Potency [3, 13]?
Its Potency is inconclusive: 61.9 µM [inhibitor].

With `Nc1cc(Cl)ccc1Cl` as the compound, how does the Potency [1] read?
Its Potency is “inactive”.

And the Potency [7]?
Its Potency is inconclusive: 46.9 µM [inhibitor, single point].

What about the Potency [4] of the same compound?
Its Potency is “inactive”.

What about the Potency [3, 13] of the same compound?
Its Potency is inconclusive: 0.606 µM [inhibitor].

What does the source list for `CC(C)c1ccc(O)cc1`?
Potency [1]: inactive; Potency [7]: inactive; Potency [3, 13]: inactive

For `CCc1ccc(C2CCNCC2)cc1`, which Potency [1] is on record?
The Potency was inconclusive: 0.158 µM [rising, partial curve].

What about the Potency [7] of the same compound?
The Potency was active: 18.3 µM.

What about the Potency [4] of the same compound?
The Potency was “inactive”.

What about the activation [3, 13] of the same compound?
Its activation is inconclusive: -42.1% [at 42.5 µM].

Which results are given for `Nc1nc(N)nc(N)n1`?
Potency [1]: inconclusive: 0.163 µM [cytotoxic, single point]; Potency [8]: inactive; activation [3, 13]: inconclusive: 17.8%

What does the source list for `CC(C)(C)C(=O)CCl`?
Potency [1]: inconclusive: 51.3 µM [rising, single point]; Potency [12]: inconclusive: 38.2 µM [activator, partial curve]; Potency [8]: inconclusive: 0.0104 µM [inhibitor, full curve, poor fit]; Potency [4]: inactive; activation [3, 13]: inconclusive: -13.8%; activation ([3]; at 92.4 µM (top of the series)): inactive: -24.9%
